Measured values: paper PMC5919683, “Transcription factor HAT1 is a substrate of SnRK2.3 kinase and negatively regulates ABA synthesis and signaling in Arabidopsis responding to drought” (PLoS Genetics, 2018)
No constants are given. Whether binding was seen depends on the method and setting. Binding seen in cells or lysates may run through a third protein. Some results given as binding are weak or reduced against the parent protein; the word gives no strength. Tags and fused reporters may be left off the sequences shown. Values belong to the binder of their own block, whether it stands above or below them.

How the values were obtained:
[1] = target: HAT1-cYFP (Arabidopsis thaliana) (UniProt P46600); experiment: split reporter; BiFC with halves of YFP in young leaves of Nicotiana benthamiana, agroinfiltrated, analysed 48 h after infiltration by fluorescence microscopy
[2] = target: T1, SnRK2.2-nYFP (Arabidopsis thaliana) (UniProt Q39192); experiment: as above
T1 sequence: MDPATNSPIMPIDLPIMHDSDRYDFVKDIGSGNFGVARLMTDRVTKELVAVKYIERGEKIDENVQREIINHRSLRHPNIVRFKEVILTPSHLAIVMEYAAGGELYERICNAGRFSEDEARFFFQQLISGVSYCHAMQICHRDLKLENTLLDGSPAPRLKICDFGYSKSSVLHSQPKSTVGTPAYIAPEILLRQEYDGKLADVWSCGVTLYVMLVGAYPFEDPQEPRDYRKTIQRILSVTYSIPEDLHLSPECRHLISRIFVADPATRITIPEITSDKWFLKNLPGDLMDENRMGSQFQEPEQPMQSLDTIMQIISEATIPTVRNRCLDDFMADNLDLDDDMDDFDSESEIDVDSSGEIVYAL

[3] = target: T2, SnRK2.3-nYFP (Arabidopsis thaliana) (UniProt Q39193); experiment: as above
T2 sequence: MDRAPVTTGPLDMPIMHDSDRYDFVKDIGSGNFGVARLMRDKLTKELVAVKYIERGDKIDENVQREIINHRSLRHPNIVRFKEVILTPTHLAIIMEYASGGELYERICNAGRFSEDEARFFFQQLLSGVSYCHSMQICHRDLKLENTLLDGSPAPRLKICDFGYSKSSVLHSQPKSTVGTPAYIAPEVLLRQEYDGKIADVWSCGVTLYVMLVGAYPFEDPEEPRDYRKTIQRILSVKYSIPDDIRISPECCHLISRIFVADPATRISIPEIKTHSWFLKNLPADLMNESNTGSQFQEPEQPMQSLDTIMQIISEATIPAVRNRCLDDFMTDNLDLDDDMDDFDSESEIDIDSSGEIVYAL

[4] = target: T3, SnRK2.6-nYFP (Arabidopsis thaliana) (UniProt Q940H6); experiment: as above
T3 sequence: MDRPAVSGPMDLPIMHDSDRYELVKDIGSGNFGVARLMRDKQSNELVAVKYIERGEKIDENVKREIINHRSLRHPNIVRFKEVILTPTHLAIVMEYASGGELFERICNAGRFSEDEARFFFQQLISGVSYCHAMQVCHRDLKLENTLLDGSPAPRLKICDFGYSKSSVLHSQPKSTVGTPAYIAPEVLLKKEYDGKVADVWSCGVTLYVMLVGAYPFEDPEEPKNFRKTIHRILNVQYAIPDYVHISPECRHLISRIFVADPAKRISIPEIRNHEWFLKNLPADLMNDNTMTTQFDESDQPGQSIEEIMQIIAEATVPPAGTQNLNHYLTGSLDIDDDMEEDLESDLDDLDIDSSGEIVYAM

[5] = target: T4, Myc-SnRK2.2 (Arabidopsis thaliana) (UniProt Q39192); experiment: co-IP; Arabidopsis leaf protoplasts co-expressing Myc-SnRK2s and HAT1-Flag; extracts with Myc agarose beads at 4°C for 2 h; HAT1-Flag detected with anti-Flag antibody
T4 sequence: T1 sequence

[6] = target: T5, Myc-SnRK2.3 (Arabidopsis thaliana) (UniProt Q39193); experiment: as above
T5 sequence: T2 sequence

[7] = target: T6, Myc-SnRK2.6 (Arabidopsis thaliana) (UniProt Q940H6); experiment: as above
T6 sequence: T3 sequence

binding [1]: binds
binding [2]: binds weakly
binding [3]: binds
binding [4]: binds weakly
B1: HAT1-cYFP (protein, UniProt P46600 1-282)
chain: MMMGKEDLGLSLSLGFAQNHPLQLNLKPTSSPMSNLQMFPWNQTLVSSSDQQKQQFLRKIDVNSLPTTVDLEEETGVSSPNSTISSTVSGKRRSTEREGTSGGGCGDDLDITLDRSSSRGTSDEEEDYGGETCRKKLRLSKDQSAVLEDTFKEHNTLNPKQKLALAKKLGLTARQVEVWFQNRRARTKLKQTEVDCEYLKRCVEKLTEENRRLEKEAAELRALKLSPRLYGQMSPPTTLLMCPSCERVAGPSSSNHNQRSVSLSPWLQMAHGSTFDVMRPRS

binding [5]: binds
binding [6]: binds
binding [7]: binds
B2: HAT1-Flag (protein, UniProt P46600 1-282)
chain: B1 chain

binding [3]: binds weakly
B3: HAT1-1F (135–282) (domain or fragment, UniProt P46600 135-282)
chain: KKLRLSKDQSAVLEDTFKEHNTLNPKQKLALAKKLGLTARQVEVWFQNRRARTKLKQTEVDCEYLKRCVEKLTEENRRLEKEAAELRALKLSPRLYGQMSPPTTLLMCPSCERVAGPSSSNHNQRSVSLSPWLQMAHGSTFDVMRPRS

binding [3]: binds
B4: HAT3 (BiFC fusion) (protein, UniProt P46602 1-315)
chain: MSERDDGLGLSLSLSLGFNQKDPSSRLNPMPLASYASSSHMQHMQQSNYNHPQKIQNTWINMFQSSERNSDMRSFLRGIDVNRAPSTVVVDVEDEGAGVSSPNSTVSSVMSGKKSERELMAAAGAVGGGRVEDNEIERASCSLGGGSDDEDGSGNGDDSSRKKLRLSKEQALVLEETFKEHSTLNPKQKMALAKQLNLRTRQVEVWFQNRRARTKLKQTEVDCEYLKRCCENLTDENRRLQKEVSELRALKLSPHLYMHMKPPTTLTMCPSCERVAVTSSSSSVAPPVMNSSSPMGPMSPWAAMPLRQRPAAGSH

binding [3]: no binding
B5: HAT1-2F (192–282) (domain or fragment, UniProt P46600 192-282)
chain: TEVDCEYLKRCVEKLTEENRRLEKEAAELRALKLSPRLYGQMSPPTTLLMCPSCERVAGPSSSNHNQRSVSLSPWLQMAHGSTFDVMRPRS

binding [3]: no binding
Binder: SPPTTLLMCPSCERVAGPSSSNHNQRSVSLSPWLQMAHGSTFDVMRPRS (domain or fragment, UniProt P46600 234-282) [HAT1-3F (234–282)]
